Reference: patent US10975042B2, “Method for purifying an amino acid-n-carboxy anhydride” (SHIN-ETSU CHEMICAL CO., LTD., priority 2018, dated 2021)
Where a name gives a salt, the structure may show the parent alone.

Test: Polymerization inhibiting test: viscosity change of NCA solution with filter aid/additive
Settings: 0.2 g NCA (A) in 1.0 g ethyl acetate plus filter aid/additive, visually observed

Structure (SMILES) | viscosity change of NCA solution, 40° C. (5 min.) | viscosity change of NCA solution, 60° C. (5 min.)
Cl [HCl in AcOEt, hydrogen chloride, reference compound] | No change | No change
O=S(=O)([O-])[O-].[Mg+2] [Magnesium sulfate, magnesium sulfate] | No change | No change
